Patent US4507315A, “Hypoglycaemic and hypolipidaemic benzamide substituted (1H-) imidazole derivatives and compositions” (May & Baker Limited, priority 1982, dated 1985)
Values joined by “and” are separate entries in the source; they are usually repeats but may differ in a detail not shown here. Equal values may be shown once. At least one read-out could not be matched to a standard name with certainty.

Tested on: Diabetic mice (strain C 57, black, MRI derived Obese/Obese)
Test: Hypoglycaemic Activity in Diabetic Mice (oral, 3 days)
Type: in vivo
Settings: 200 mg/kg body weight per day
Protocol: Diabetic mice (strain C 57, black, MRI derived Obese/Obese) of either sex each weighing between 45 and 70 g were given the test compound orally in tragacanth mucilage at a dose of 5,10,30,100,200 or 500 mg/kg body weight per day for 3 days. Three hours after the last dose the animals were killed with carbon dioxide and bled by cardiac puncture. The blood glucose levels were assessed by the glucose-oxidase method of GOD-Perid. Control groups (given doses of unmedicated tragacanth mucilage) were included with each test. The percentage reduction in the concentration of blood glucose was calculated by comparison with the simultaneous controls, for each of the test compounds used.

`O=C(NCCCn1ccnc1)c1ccccc1NS(=O)(=O)c1ccc(Cl)cc1` [A, 2-(4-chlorobenzenesulphonamido)-N-(3-imidazol-1-ylpropyl)benzamide] was tested, and the “change in blood glucose compared with control” value was -67% and -61%.
